# Test results published in PubChem BioAssay AID1347423 (Functional Genomics Laboratory (NCATS/FGL), 2020).
# Hit rate of the full screen: of about 52,000 sequences, about 210 (0.4%) were called active.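 How the source made its calls: active means gene whose silencing raises cell survival under the drug, median off-target-corrected z-score across its silencing RNAs 2 or more; inactive means the rest.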 Some of the results follow.
# Experiment: Resistance to Poly (ADP-Ribose) Polymerase inhibitor: Gene Identification via Genome-wide siRNA Screen
# Details: mouse BRCA2 R2336H ES cells, olaparib, CellTiter-Glo viability; hits give high values
# From the text: The role of Poly (ADP-Ribose) Polymerase (PARP) proteins in DNA repair has been elegantly utilized for the synthetic lethality-based treatment of BRCA-deficient tumors by PARP inhibitors. PARP inhibitors are now being used for treatment of BRCA-deficient breast and ovarian cancers. […] While several mechanisms of drug resistance have been identified, majority of these tumors develop drug resistance due to unknown causes. To identified novel regulators of chemo-resistance in BRCA2-mutated cells, we performed a genome wide siRNA library screen. We have found ES cells expressing a hypomorphic allele of BRCA2 to be hypersensitive to PAPP inhibitors (such as olaparib). We used ES cells expressing a mutant allele of BRCA2 that has a single amino acid substitution at position 2336 (arginine to histidine, R2336H). The screen was conducted using an Ambion (Thermo) Silencer Mouse Genome siRNA collection. The library targets 17,575 mouse genes with 3 siRNAs per gene. TET2 (E130014J05Rik) was identified as a top candidate.
# Transfections were performed in 384 well plates (Corning 3707). Plates were coated with 0.1% gelatin in H2O overnight at ambient temperature. Gelatin solution was aspirated (BioTek EL406) and siRNAs were printed using a Bravo VPrep liquid handler integrated within a BioCel automation platform (Agilent). Cell viability was measured using CellTiter Glo (Promega). For transfections, […] of serum free media containing Lipofectamine RNAiMax […] was added to wells containing siRNA (0.8pmol). Lipid and siRNA were allowed to complex for 45 min at ambient temperature before addition of 1000 cells in DMEM, 30% FBS to yield final transfection mixtures containing 20 nM siRNA in DMEM, 15% FBS. PARPi (olaparib, AZD2281) was added 48 h post-transfection (500 nM) and viability (CellTiter Glo, Promega) was assayed 72 h later on a PerkinElmer Envision 2104 Multilabel plate reader. Ambion Silencer Select Negative Control #2 was incorporated on all screening plates (16 wells) and the median negative control value on each plate was used for normalization. An siRNA targeting Trp53 was used as a positive control. This control yielded a median protective effect of ~1.9 fold versus negative control throughout the screen. The median absolute deviation (MAD) based z-score was calculated for each siRNA. Genes were then ranked by taking the median value for all siRNAs tested against a given gene. Scores were also adjusted for seed-based off-target effects to help deprioritize likely false positives.
row,Sequence,z-score
1,GGAGAUAACACCGUUACUUTT against Olfr769,inactive: -1.54
2,GGUUCAAGAACUUAAGACATT against Cenpe,inactive: -2.28
3,GCGAGUGACACAUCUUCUCTT against Klhl7,inactive: 2.34
4,GCAGGAAUGCGGUAUAAACTT against Inpp5f,inactive: 0.822
5,GCCUCUUUAGGCUCUCUUUTT against Hspb6,inactive: -1.53
6,CGUAGUCCUGUAUCCUCUATT against Aip,inactive: -0.54
7,GGACAUCGAUCCCUUUGACTT against 0610007P22Rik,inactive: -0.0114
8,GCAGAGACUCCAAAGCUCATT against Chd4,inactive: -2.73
9,GGCAAUUGUUUUUAGAGAGTT against 2610510J17Rik,inactive: 0.946
10,GCUGCACAAGUGAUAUCCGTT against Trim26,inactive: 1.05
11,GGUGUCUCUGAAUGAUGGCTT against 1810009J06Rik,inactive: -0.317
12,GGCUUGUUUUGCCCAGAUGTT against Olfr398,inactive: -2.84
13,UAUAGAACAUGCCAAAUUGTT against Adam26,inactive: 0.819
14,GGCAUGGAGAGAAGAAAAGTT against 2400009B11Rik,inactive: -0.642
15,GGUCUUUGAUCUACGAAUGTT against Rhobtb2,inactive: -0.616
16,AAGUCUGAUUGAAGAGGAATT against Gnrh2,inactive: -0.378
17,UGAAGAAUAAGGAACUCAUTT against MGC58382,inactive: -0.239
18,CGUCUCAACAGAGUUGGAGTT against Hrmt1l1,inactive: 0.151
19,GGGUUAAAAACAAAGGACGTT against Adcyap1,inactive: 0.414
20,CCUUCUAGAGUACAUCAUATT against Plfr,inactive: 0.00345
21,GGAGUCGAGUGAUGGUUCATT against Rtl1,inactive: -0.667
22,GGAUGCAUGGCUCAGUUAUTT against Olfr143,inactive: -0.136
23,GGAGAUAAUCCUUGUCACGTT against MGC51670,inactive: 0.505
24,GGGCUUCACUUCCUUAGGATT against Cog3,inactive: -1.68
25,GCUUCUCCGCUUAUUGGUCTT against Tscot,inactive: -0.494
26,GGUACACUUUCAGAAAUGUTT against 3110037I16Rik,inactive: 0.544

# An excerpt of these results, with tabs.
row	Sequence	z-score
21	GGAGUCGAGUGAUGGUUCATT against Rtl1	inactive: -0.667
22	GGAUGCAUGGCUCAGUUAUTT against Olfr143	inactive: -0.136
23	GGAGAUAAUCCUUGUCACGTT against MGC51670	inactive: 0.505

# The listing continues.

row,Sequence,z-score
1,GGGUCUCAAAGCAGUUUUUTT against Rhoj,inactive: 1.66
2,GUAUGAUCUUUAAACUCCATT against Ppp1r13l,inactive: -0.499
3,CGUCUUACACGGUUCAAAGTT against Tbc1d10,inactive: -0.579
4,GGAAGAAAGUGAAGAAGAGTT against C230004F18Rik,inactive: -1.93
5,GGCGUAUCAUUUUAUCGACTT against Phlda3,inactive: 0.488
6,GGAGCAGAUGAGAUCCAAGTT against Cdc42se1,inactive: -2.26
7,GCGUUGAAACCACUUUGUATT against Tmprss11c,inactive: -0.969
8,GGACGCGGGAAAAAUGUUCTT against Hnrpab,inactive: 1.69
9,GGGAUCUUUUACUCAUACUTT against Olfr862,inactive: -0.0127
10,GCCUAGACAAAGUGAUGGATT against Sybl1,inactive: -0.418
11,GGAUGAGUUUGACAAGCUGTT against Rhou,inactive: -1.67
12,GGGUCACUGAAGGUACUCUTT against Igsf7,inactive: 1.7
13,GGUCAAUGAGUUAGCAAUATT against Olfr1143,inactive: 0.122
14,GGAGACACUGAAUGUGACATT against Ttyh1,inactive: 0.236
15,GGCCCUAAUAGCAACAGGATT against Ubqln2,inactive: 0.104
16,GGACAAUGUGAGUUUCCUGTT against 5330439B14Rik,inactive: -1.38
17,GGGCAACUUUGAGUUCGAATT against Dok2,inactive: -0.0843
18,GCAGAUAAGAGUUCAAAUCTT against Oxa1l,inactive: 0.274
19,CGUGGUUCUUCGAGUAGAUTT against Sfrs5,inactive: -0.907
20,GUUUGAGACGGAGCAGAGCTT against Krt1-14,inactive: 0.467
21,GGAGAAGGAUGAAGACGGATT against Map1lc3a,inactive: -0.115
22,GGUUCUUUUGAGCUUUAUGTT against 1810007P19Rik,inactive: 0.384
23,AUAUAGACCUCGUUACGUATT against 6330571D19Rik,inactive: -0.727
24,GGAUUUAGCCAAAGAAAAGTT against Tbc1d8,inactive: 0.237
25,GGAGAAAGCACUCUAUCUCTT against Abcc10,inactive: 0.385
26,GGACUUUGAGAAUGUGGAUTT against Xylt1,inactive: -0.792
